Assay results reported in article PMC10127389.
No constants are given. Whether binding was seen depends on the method and setting. Binding seen in cells or lysates may run through a third protein. Binding calls can cover weak binding; strength is not graded here. Tags and fused reporters may be left off the sequences shown.

T1: human MLF2 (human myeloid leukemia factor 2), HA-tagged, expressed from pPhMLF2 in G. lamblia (human) (UniProt Q15773)
T1 sequence: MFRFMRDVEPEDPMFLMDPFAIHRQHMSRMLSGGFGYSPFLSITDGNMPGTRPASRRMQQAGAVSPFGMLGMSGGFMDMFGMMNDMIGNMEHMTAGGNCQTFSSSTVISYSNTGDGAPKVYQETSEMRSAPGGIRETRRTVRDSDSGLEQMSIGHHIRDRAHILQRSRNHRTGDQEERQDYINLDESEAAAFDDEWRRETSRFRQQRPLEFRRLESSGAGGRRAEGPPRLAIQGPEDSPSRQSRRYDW

B1: human MLF2 (human myeloid leukemia factor 2), HA-tagged, expressed from pPhMLF2 in G. lamblia (protein, UniProt Q15773 1-248)
chain: T1 sequence

Assays:
[1] = molecular target: T1, human MLF2 (human myeloid leukemia factor 2), HA-tagged, expressed from pPhMLF2 in G. lamblia (human); assay: co-IP; lysates of pPhMLF2 stable transfectants of G. lamblia in growth medium; precipitated with anti-HA antibody conjugated to beads; Western blot with anti-HA, anti-MLF and anti-RAN; 5'Δ5N-Pac cell line as control
[2] = molecular target: Giardia lamblia myeloid leukemia factor (MLF), endogenous (G. lamblia (endogenous in WB clone C6 trophozoites)) (UniProt E2RTV5); assay: co-IP; reciprocal: lysates of pPhMLF2 stable transfectants incubated with 2 μg anti-MLF antibody for 2 h, then protein G plus/protein A-agarose for 1 h; preimmune serum as negative control; Western blot with anti-MLF and anti-HA

Molecule | binding [1] | binding [2]
Giardia lamblia myeloid leukemia factor (MLF), endogenous (from UniProt E2RTV5) | binds | 
B1 |  | binds
